# Reference: US20250145665A1, “MACROCYCLIC PEPTIDES USEFUL AS MODULATORS OF TNF ALPHA” (Bristol-Myers Squibb Company, priority 2023, published 2025)
# Amino acid sequences for entries named in this document (tags omitted). Residues count along the entry.
# UniProt P01375, 77-233 limits assumed: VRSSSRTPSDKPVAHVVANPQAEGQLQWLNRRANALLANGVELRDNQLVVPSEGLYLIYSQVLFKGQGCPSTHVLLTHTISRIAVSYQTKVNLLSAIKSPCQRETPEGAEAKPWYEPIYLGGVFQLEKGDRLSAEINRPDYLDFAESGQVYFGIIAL
# Read-outs that look alike come from different tables or passages of the source. Some entries share one result that the patent states for a list of compounds. Starred links: 1 amine or outer side, 2 acyl side, 3 side chain; linkers in the order of their positions; H or OH if unused. Positions of bridges follow the written chain, without caps; N, C: chain ends. Non-standard residues stand in square brackets, D forms with d. Residues, ends and D or L forms follow the SMILES beside them. *: point of attachment. X5 = Cn1nc(C(=O)Nc2ccc(-c3ccc(C[C@H](N[*:1])C(=O)[*:2])cc3)cc2)c2ccccc21; X21 = N=C(NCCC[C@@H](N[*:1])C(=O)[*:2])NC[C@H](O)[C@@H](O)[C@@H](O)CO; dArg(ω-(2S)-2,3-diOHpropyl) = N=C(NCCC[C@@H](N)C(=O)O)NC[C@H](O)CO; Bip(4'-NH) = O=C([C@H](Cc1ccc(-c2ccc(N[*:3])cc2)cc1)N[*:1])[*:2]; dArg(ω-(3-HO-benzyl)) = N=C(NCCC[C@@H](N)C(=O)O)NCc1cccc(O)c1; Indazole3carbonyl(1-CH2COOH) = O=C(O)Cn1nc(C(=O)*)c2ccccc21; Bip(4'-COOH) = N[C@@H](Cc1ccc(-c2ccc(C(=O)O)cc2)cc1)C(=O)O; X33 = N=C(NCCC[C@@H](N[*:1])C(=O)[*:2])NCc1cccc(CC(=O)O)c1; Indole3carbonyl(1-CH2COOH) = O=C(O)Cn1cc(C(=O)*)c2ccccc21; X42 = O=C(O)Cn1cc(C[C@H](NC(=O)c2ccccc2)C(=O)*)c2ccccc21; X19 = N=C(NCCC[C@@H](N[*:1])C(=O)[*:2])NCc1ccc2ccccc2c1; X7 = N=C(NCCC[C@@H](N[*:1])C(=O)[*:2])NCc1ccc2occc2c1; X51 = N=C(NCCC[C@@H](N[*:1])C(=O)[*:2])NCCc1ccccc1; Ala(imidazol-2-yl) = N[C@@H](Cc1ncc[nH]1)C(=O)O; Ala(morpholin-4-yl) = N[C@@H](CN1CCOCC1)C(=O)O; Phe(3-CONH2) = NC(=O)c1cccc(C[C@H](N)C(=O)O)c1; Bip = N[C@@H](Cc1ccc(-c2ccccc2)cc1)C(=O)O; Tiq1c(1S) = O=C(O)[C@H]1NCCc2ccccc21; 2Pal = N[C@@H](Cc1ccccn1)C(=O)O; 2Thi = N[C@@H](Cc1cccs1)C(=O)O; Cha = N[C@@H](CC1CCCCC1)C(=O)O; Tle = CC(C)(C)[C@H](N)C(=O)O; Sar = CNCC(=O)O
# Target: TNFα (Homo sapiens, UniProt P01375)
# Experiment: TNF-Induced HEK-Blue Assay
# Format: cell-based
# Conditions: read-out: IC50 values measured in the TNF induced HEK-Blue assay
# [1] = summary statement for all examples
SMILES,IC50 [1] [µM],IC50 [µM]
CC(C)C[C@@H]1NC(=O)[C@H](Cc2cccs2)NC(=O)[C@H](C(C)C)NC(=O)[C@@H]2CCCN2C(=O)[C@H](C(C)C)NC(=O)[C@@H](CCCNC(=N)NC[C@H](O)[C@@H](O)[C@@H](O)CO)NC(=O)[C@H](CC(=O)O)NC(=O)[C@H](Cc2ccccn2)NC(=O)CN(C)C(=O)[C@H](Cc2ccc(-c3ccc(NC(=O)c4nn(CC(=O)O)c5ccccc45)cc3)cc2)NC(=O)[C@H](Cc2ccc(-c3ccccc3)cc2)NC(=O)[C@H](CN2CCOCC2)NC(=O)CSC[C@@H](C(=O)NCC(N)=O)NC1=O [Example 640] ({CH2CO}-[Ala(morpholin-4-yl)][Bip][Bip(4'-NH)](Indazole3carbonyl(1-CH2COOH))[Sar][2Pal]D[X21]VPV[2Thi]LCG-NH2; thioether N-13),≤ 25,
CC[C@H](C)[C@@H]1NC(=O)[C@@H]2CCCN2C(=O)[C@H]([C@@H](C)CC)NC(=O)[C@@H](CCCNC(=N)N)NC(=O)[C@H](CC(=O)O)NC(=O)[C@H](Cc2ccccn2)NC(=O)CN(C)C(=O)[C@H](Cc2ccc(-c3ccc(NC(=O)[C@H](Cc4cn(CC(=O)O)c5ccccc45)NC(=O)c4ccccc4)cc3)cc2)NC(=O)[C@H](Cc2ccc(-c3ccccc3)cc2)NC(=O)[C@H](C(C)(C)C)NC(=O)CSC[C@@H](C(=O)NCC(N)=O)NC(=O)[C@H](CC(C)C)NC(=O)[C@H](Cc2cccc(C(N)=O)c2)NC1=O [Example 380] ({CH2CO}-[Tle][Bip][Bip(4'-NH)](X42)[Sar][2Pal]D[dR]IPI[Phe(3-CONH2)]LCG-NH2; thioether N-13),≤ 25,
CC(C)C[C@@H]1NC(=O)[C@H](CCCNC(=N)N)NC(=O)[C@H](C(C)C)NC(=O)[C@@H]2CCCN2C(=O)[C@H](C(C)C)NC(=O)[C@@H](CCCNC(=N)NCc2ccc3ccccc3c2)NC(=O)[C@H](CC(=O)O)NC(=O)[C@@H]2CCCN2C(=O)CN(C)C(=O)[C@H](Cc2ccc(-c3ccc(NC(=O)c4nn(CC(=O)O)c5ccccc45)cc3)cc2)NC(=O)[C@H](Cc2ccc(-c3ccccc3)cc2)NC(=O)[C@H](CN2CCOCC2)NC(=O)CSC[C@@H](C(=O)NCC(N)=O)NC1=O [Example 468] ({CH2CO}-[Ala(morpholin-4-yl)][Bip][Bip(4'-NH)](Indazole3carbonyl(1-CH2COOH))[Sar]PD[X19]VPVRLCG-NH2; thioether N-13),≤ 25,
CC(C)C[C@@H]1NC(=O)[C@H](CCCNC(=N)N)NC(=O)[C@H](C(C)C)NC(=O)[C@@H]2CCCN2C(=O)[C@H](C(C)C)NC(=O)[C@@H](CCCNC(=N)NCCc2ccccc2)NC(=O)[C@H](CC(=O)O)NC(=O)[C@@H]2CCCN2C(=O)CN(C)C(=O)[C@H](Cc2ccc(-c3ccc(NC(=O)c4nn(CC(=O)O)c5ccccc45)cc3)cc2)NC(=O)[C@H](Cc2ccc(-c3ccccc3)cc2)NC(=O)[C@H](CN2CCOCC2)NC(=O)CSC[C@@H](C(=O)NCC(N)=O)NC1=O [Example 365] ({CH2CO}-[Ala(morpholin-4-yl)][Bip][Bip(4'-NH)](Indazole3carbonyl(1-CH2COOH))[Sar]PD[X51]VPVRLCG-NH2; thioether N-13),≤ 25,
CC(C)C[C@@H]1NC(=O)[C@H](Cc2ncc[nH]2)NC(=O)[C@H](C(C)C)NC(=O)[C@@H]2CCCN2C(=O)[C@H](C(C)C)NC(=O)[C@@H](CCCNC(=N)NCc2cccc(O)c2)NC(=O)[C@H](CC(=O)O)NC(=O)[C@H](Cc2ccccn2)NC(=O)CN(C)C(=O)[C@H](Cc2ccc(-c3ccc(NC(=O)c4cn(CC(=O)O)c5ccccc45)cc3)cc2)NC(=O)[C@H](Cc2ccc(-c3ccc(C(=O)O)cc3)cc2)NC(=O)[C@H](CC2CCCCC2)NC(=O)CSC[C@@H](C(=O)NCC(N)=O)NC1=O [Example 552] ({CH2CO}-[Cha][Bip(4'-COOH)][Bip(4'-NH)](Indole3carbonyl(1-CH2COOH))[Sar][2Pal]D[dArg(ω-(3-HO-benzyl))]VPV[Ala(imidazol-2-yl)]LCG-NH2; thioether N-13),≤ 25,
"CC(C)C[C@@H]1NC(=O)[C@H](CCCNC(=N)N)NC(=O)[C@H](C(C)C)NC(=O)[C@@H]2CCCN2C(=O)[C@H](C(C)C)NC(=O)[C@@H](CCCNC(=N)NC[C@H](O)CO)NC(=O)[C@H](CC(=O)O)NC(=O)[C@@H]2CCCN2C(=O)CN(C)C(=O)[C@H](Cc2ccc(-c3ccc(NC(=O)c4nn(C)c5ccccc45)cc3)cc2)NC(=O)[C@H](Cc2ccc(-c3ccccc3)cc2)NC(=O)[C@H](CN2CCOCC2)NC(=O)CSC[C@@H](C(=O)NCC(N)=O)NC1=O [Example 476] ({CH2CO}-[Ala(morpholin-4-yl)][Bip][X5][Sar]PD[dArg(ω-(2S)-2,3-diOHpropyl)]VPVRLCG-NH2; thioether N-13)",,≤ 25
CC(C)C[C@@H]1NC(=O)[C@H](Cc2ccc(O)cc2)NC(=O)[C@H](C(C)C)NC(=O)[C@@H]2CCCN2C(=O)[C@H](C(C)C)NC(=O)[C@@H](CCCNC(=N)N)NC(=O)[C@H](CC(=O)O)NC(=O)[C@@H]2CCCN2C(=O)CN(C)C(=O)[C@H](Cc2ccc(-c3ccc(NC(=O)c4nn(CC(=O)O)c5ccccc45)cc3)cc2)NC(=O)[C@H](Cc2ccc(-c3ccc(C(=O)O)cc3)cc2)NC(=O)[C@H](CC2CCCCC2)NC(=O)CSC[C@@H](C(=O)NCC(N)=O)NC1=O [Example 363] ({CH2CO}-[Cha][Bip(4'-COOH)][Bip(4'-NH)](Indazole3carbonyl(1-CH2COOH))[Sar]PD[dR]VPVYLCG-NH2; thioether N-13),≤ 25,
"CC(C)C[C@@H]1NC(=O)[C@H](CCCNC(=N)N)NC(=O)[C@H](C(C)C)NC(=O)[C@@H]2CCCN2C(=O)[C@H](C(C)C)NC(=O)[C@@H](CCCNC(=N)NC[C@H](O)CO)NC(=O)[C@H](CC(=O)O)NC(=O)[C@@H]2CCCN2C(=O)CN(C)C(=O)[C@H](Cc2ccc(-c3ccc(NC(=O)c4cn(CC(=O)O)c5ccccc45)cc3)cc2)NC(=O)[C@H](Cc2ccc(-c3ccccc3)cc2)NC(=O)[C@H](CN2CCOCC2)NC(=O)CSC[C@@H](C(=O)NCC(N)=O)NC1=O [Example 540] ({CH2CO}-[Ala(morpholin-4-yl)][Bip][Bip(4'-NH)](Indole3carbonyl(1-CH2COOH))[Sar]PD[dArg(ω-(2S)-2,3-diOHpropyl)]VPVRLCG-NH2; thioether N-13)",≤ 25,
"CC(C)C[C@@H]1NC(=O)[C@H](Cc2cccs2)NC(=O)[C@H](C(C)C)NC(=O)[C@@H]2CCCN2C(=O)[C@H](C(C)C)NC(=O)[C@@H](CCCNC(=N)NC[C@H](O)CO)NC(=O)[C@H](CC(=O)O)NC(=O)[C@H](Cc2ccccn2)NC(=O)CN(C)C(=O)[C@H](Cc2ccc(-c3ccc(NC(=O)c4nn(CC(=O)O)c5ccccc45)cc3)cc2)NC(=O)[C@H](Cc2ccc(-c3ccccc3)cc2)NC(=O)[C@H](CN2CCOCC2)NC(=O)CSC[C@@H](C(=O)NCC(N)=O)NC1=O [Example 639] ({CH2CO}-[Ala(morpholin-4-yl)][Bip][Bip(4'-NH)](Indazole3carbonyl(1-CH2COOH))[Sar][2Pal]D[dArg(ω-(2S)-2,3-diOHpropyl)]VPV[2Thi]LCG-NH2; thioether N-13)",≤ 25,
CC(C)C[C@@H]1NC(=O)[C@H](CCCNC(=N)N)NC(=O)[C@H](C(C)C)NC(=O)[C@@H]2CCCN2C(=O)[C@H](C(C)C)NC(=O)[C@@H](CCCNC(=N)NCc2cccc(CC(=O)O)c2)NC(=O)[C@H](CC(=O)O)NC(=O)[C@@H]2CCCN2C(=O)CN(C)C(=O)[C@H](Cc2ccc(-c3ccc(NC(=O)c4nn(CC(=O)O)c5ccccc45)cc3)cc2)NC(=O)[C@H](Cc2ccc(-c3ccccc3)cc2)NC(=O)[C@H](CN2CCOCC2)NC(=O)CSC[C@@H](C(=O)NCC(N)=O)NC1=O [Example 511] ({CH2CO}-[Ala(morpholin-4-yl)][Bip][Bip(4'-NH)](Indazole3carbonyl(1-CH2COOH))[Sar]PD[X33]VPVRLCG-NH2; thioether N-13),≤ 25,
CC[C@H](C)[C@@H]1NC(=O)[C@@H](CCCNC(=N)N)NC(=O)[C@H](CC(=O)O)NC(=O)[C@H](Cc2cnc[nH]2)NC(=O)CN(C)C(=O)[C@H](Cc2ccc(-c3ccc(NC(=O)c4nn(CC(=O)O)c5ccccc45)cc3)cc2)NC(=O)[C@H](Cc2ccc(-c3ccc(C(=O)O)cc3)cc2)NC(=O)[C@H](CC2CCCCC2)NC(=O)CSC[C@@H](C(=O)NCC(N)=O)NC(=O)[C@H](CC(C)C)NC(=O)[C@H](Cc2cnc[nH]2)NC(=O)[C@H](C(C)C)NC(=O)[C@@H]2c3ccccc3CCN2C1=O [Example 360] ({CH2CO}-[Cha][Bip(4'-COOH)][Bip(4'-NH)](Indazole3carbonyl(1-CH2COOH))[Sar]HD[dR]I[Tiq1c(1S)]VHLCG-NH2; thioether N-13),≤ 25,
CC[C@H](C)[C@@H]1NC(=O)[C@@H](CCCNC(=N)NCc2ccc3occc3c2)NC(=O)[C@H](CC(=O)O)NC(=O)[C@H](Cc2cnc[nH]2)NC(=O)CN(C)C(=O)[C@H](Cc2ccc(-c3ccc(NC(=O)c4nn(CC(=O)O)c5ccccc45)cc3)cc2)NC(=O)[C@H](Cc2ccc(-c3ccccc3)cc2)NC(=O)[C@H](CC2CCCCC2)NC(=O)CSC[C@@H](C(=O)NCC(N)=O)NC(=O)[C@H](CC(C)C)NC(=O)[C@H](Cc2cnc[nH]2)NC(=O)[C@H](C(C)C)NC(=O)[C@@H]2CCCN2C1=O [Example 479] ({CH2CO}-[Cha][Bip][Bip(4'-NH)](Indazole3carbonyl(1-CH2COOH))[Sar]HD[X7]IPVHLCG-NH2; thioether N-13),≤ 25,
